{"source": "PubChem BioAssay AID1671195 (Yale University, 2021)", "purpose": "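Regulators of LDL receptor activity judged by labelled LDL uptake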 (primary screen)", "cells": "human Huh7 hepatoma cells", "reagents": "siRNA pool against human genes, 18 nM", "timing": "about 2 to 2.5 days of knockdown, then 8 h LDL uptake", "treatment": "DiI-labelled LDL at 30 µg/ml for 8 h, in lipoprotein-deficient serum medium", "measured": "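Per-cell DiI-LDL intensity by automated imaging; well means scaled to the plate median and given as a robust z-score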", "reading the numbers": "robust z-score: higher = more LDL uptake after knockdown", "hit rule": "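a gene counts as active if at least two replicate z-scores exceed ±2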", "note": "The whole screen tested about 22,000 reagents; below is a part drawn at random. Of all reagents, about 1,510 (6.9%) got an active call. 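Active includes knockdowns raising or lowering LDL uptake; positive z-scores mean more uptake, negative mean less.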 No sequences are given here."}
{"gene knocked down": "MDFIC (GeneID 29969)", "robust z-score, replicate 1": -3.21, "robust z-score, replicate 2": -0.255, "robust z-score, replicate 3": -2.53, "Outcome": "active"}
{"gene knocked down": "LOC442498 (retired record) (GeneID 442498)", "robust z-score, replicate 1": 0.391, "robust z-score, replicate 2": 0.0497, "robust z-score, replicate 3": -1.52, "Outcome": "inactive"}
{"gene knocked down": "KRT13 (GeneID 3860)", "robust z-score, replicate 1": -0.754, "robust z-score, replicate 2": -0.39, "robust z-score, replicate 3": -0.407, "Outcome": "inactive"}
{"gene knocked down": "PPCDC (GeneID 60490)", "robust z-score, replicate 1": 2.91, "robust z-score, replicate 2": 2.93, "robust z-score, replicate 3": 3.22, "Outcome": "active"}
{"gene knocked down": "SIN3B (GeneID 23309)", "robust z-score, replicate 1": 1.04, "robust z-score, replicate 2": 1.63, "robust z-score, replicate 3": -0.181, "Outcome": "inactive"}
{"gene knocked down": "CCNDBP1 (GeneID 23582)", "robust z-score, replicate 1": -1.75, "robust z-score, replicate 2": 0.368, "robust z-score, replicate 3": -2.49, "Outcome": "inactive"}
{"gene knocked down": "PRX (GeneID 57716)", "robust z-score, replicate 1": 0.366, "robust z-score, replicate 2": 0.436, "robust z-score, replicate 3": -0.0296, "Outcome": "inactive"}
{"gene knocked down": "KRTAP4-12 (GeneID 83755)", "robust z-score, replicate 1": 1.01, "robust z-score, replicate 2": 0.115, "robust z-score, replicate 3": -0.448, "Outcome": "inactive"}

4 entries already listed, arranged by “robust z-score, replicate 2”, low to high.
{"gene knocked down": "CCNDBP1 (GeneID 23582)", "robust z-score, replicate 1": -1.75, "robust z-score, replicate 2": 0.368, "robust z-score, replicate 3": -2.49, "Outcome": "inactive"}
{"gene knocked down": "PRX (GeneID 57716)", "robust z-score, replicate 1": 0.366, "robust z-score, replicate 2": 0.436, "robust z-score, replicate 3": -0.0296, "Outcome": "inactive"}
{"gene knocked down": "SIN3B (GeneID 23309)", "robust z-score, replicate 1": 1.04, "robust z-score, replicate 2": 1.63, "robust z-score, replicate 3": -0.181, "Outcome": "inactive"}
{"gene knocked down": "PPCDC (GeneID 60490)", "robust z-score, replicate 1": 2.91, "robust z-score, replicate 2": 2.93, "robust z-score, replicate 3": 3.22, "Outcome": "active"}

More results:
{"gene knocked down": "IFT54 (GeneID 26146)", "robust z-score, replicate 1": 0.556, "robust z-score, replicate 2": 0.917, "robust z-score, replicate 3": 0.617, "Outcome": "inactive"}
{"gene knocked down": "SPATA31D1 (GeneID 389763)", "robust z-score, replicate 1": 0.129, "robust z-score, replicate 2": 0.429, "robust z-score, replicate 3": 0.533, "Outcome": "inactive"}
{"gene knocked down": "RMND5B (GeneID 64777)", "robust z-score, replicate 1": -0.95, "robust z-score, replicate 2": -0.93, "robust z-score, replicate 3": -0.672, "Outcome": "inactive"}
{"gene knocked down": "MAPRE3 (GeneID 22924)", "robust z-score, replicate 1": -1.2, "robust z-score, replicate 2": -0.614, "robust z-score, replicate 3": -0.51, "Outcome": "inactive"}
{"gene knocked down": "SNTB2 (GeneID 6645)", "robust z-score, replicate 1": -0.543, "robust z-score, replicate 2": -0.67, "robust z-score, replicate 3": -0.683, "Outcome": "inactive"}
{"gene knocked down": "LOC389353 (retired record) (GeneID 389353)", "robust z-score, replicate 1": -0.481, "robust z-score, replicate 2": -0.501, "robust z-score, replicate 3": -0.385, "Outcome": "inactive"}
{"gene knocked down": "H2BC13 (GeneID 8340)", "robust z-score, replicate 1": 0.463, "robust z-score, replicate 2": 2.17, "robust z-score, replicate 3": 1.34, "Outcome": "inactive"}
{"gene knocked down": "LDLRAD2 (GeneID 401944)", "robust z-score, replicate 1": 1.29, "robust z-score, replicate 2": 1.39, "robust z-score, replicate 3": 1.25, "Outcome": "inactive"}
{"gene knocked down": "AKR1B10 (GeneID 57016)", "robust z-score, replicate 1": -1.54, "robust z-score, replicate 2": -1.51, "robust z-score, replicate 3": -1.38, "Outcome": "inactive"}
{"gene knocked down": "ZDHHC6 (GeneID 64429)", "robust z-score, replicate 1": -0.656, "robust z-score, replicate 2": -1.31, "robust z-score, replicate 3": -0.284, "Outcome": "inactive"}
{"gene knocked down": "FLJ46230 (retired record) (GeneID 400679)", "robust z-score, replicate 1": 0.232, "robust z-score, replicate 2": 0.0412, "robust z-score, replicate 3": -0.258, "Outcome": "inactive"}
{"gene knocked down": "LOC389347 (retired record) (GeneID 389347)", "robust z-score, replicate 1": -0.168, "robust z-score, replicate 2": -0.0425, "robust z-score, replicate 3": 0.342, "Outcome": "inactive"}
{"gene knocked down": "JMJD7-PLA2G4B (GeneID 8681)", "robust z-score, replicate 1": 0.424, "robust z-score, replicate 2": -1.66, "robust z-score, replicate 3": 0.454, "Outcome": "inactive"}
{"gene knocked down": "DNAH2 (GeneID 146754)", "robust z-score, replicate 1": 0.509, "robust z-score, replicate 2": -0.276, "robust z-score, replicate 3": 0.294, "Outcome": "inactive"}
{"gene knocked down": "ANXA2R (GeneID 389289)", "robust z-score, replicate 1": 0.63, "robust z-score, replicate 2": 1.17, "robust z-score, replicate 3": 1.13, "Outcome": "inactive"}
{"gene knocked down": "DENND10 (GeneID 404636)", "robust z-score, replicate 1": 4.44, "robust z-score, replicate 2": 3.43, "robust z-score, replicate 3": 3.62, "Outcome": "active"}
